In PMC11989440 one finds binding data, which are given here for one substance.

By UniProt entry, the sequences of proteins in these tests, tags left out.
UniProt Q8N4S9: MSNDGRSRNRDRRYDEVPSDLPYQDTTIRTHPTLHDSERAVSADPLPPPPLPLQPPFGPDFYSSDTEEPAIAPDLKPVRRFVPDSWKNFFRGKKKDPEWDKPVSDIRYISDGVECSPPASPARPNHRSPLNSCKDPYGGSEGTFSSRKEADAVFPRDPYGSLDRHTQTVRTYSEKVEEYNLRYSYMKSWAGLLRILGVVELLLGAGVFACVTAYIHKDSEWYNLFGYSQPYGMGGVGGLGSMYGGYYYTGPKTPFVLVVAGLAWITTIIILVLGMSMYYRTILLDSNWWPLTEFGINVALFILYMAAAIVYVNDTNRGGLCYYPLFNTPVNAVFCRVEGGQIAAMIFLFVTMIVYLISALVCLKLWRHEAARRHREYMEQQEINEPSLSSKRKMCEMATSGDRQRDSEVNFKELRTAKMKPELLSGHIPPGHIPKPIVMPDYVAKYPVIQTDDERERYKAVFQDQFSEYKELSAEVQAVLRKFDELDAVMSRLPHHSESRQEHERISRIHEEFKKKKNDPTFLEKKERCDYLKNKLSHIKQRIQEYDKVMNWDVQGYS
UniProt Q07157: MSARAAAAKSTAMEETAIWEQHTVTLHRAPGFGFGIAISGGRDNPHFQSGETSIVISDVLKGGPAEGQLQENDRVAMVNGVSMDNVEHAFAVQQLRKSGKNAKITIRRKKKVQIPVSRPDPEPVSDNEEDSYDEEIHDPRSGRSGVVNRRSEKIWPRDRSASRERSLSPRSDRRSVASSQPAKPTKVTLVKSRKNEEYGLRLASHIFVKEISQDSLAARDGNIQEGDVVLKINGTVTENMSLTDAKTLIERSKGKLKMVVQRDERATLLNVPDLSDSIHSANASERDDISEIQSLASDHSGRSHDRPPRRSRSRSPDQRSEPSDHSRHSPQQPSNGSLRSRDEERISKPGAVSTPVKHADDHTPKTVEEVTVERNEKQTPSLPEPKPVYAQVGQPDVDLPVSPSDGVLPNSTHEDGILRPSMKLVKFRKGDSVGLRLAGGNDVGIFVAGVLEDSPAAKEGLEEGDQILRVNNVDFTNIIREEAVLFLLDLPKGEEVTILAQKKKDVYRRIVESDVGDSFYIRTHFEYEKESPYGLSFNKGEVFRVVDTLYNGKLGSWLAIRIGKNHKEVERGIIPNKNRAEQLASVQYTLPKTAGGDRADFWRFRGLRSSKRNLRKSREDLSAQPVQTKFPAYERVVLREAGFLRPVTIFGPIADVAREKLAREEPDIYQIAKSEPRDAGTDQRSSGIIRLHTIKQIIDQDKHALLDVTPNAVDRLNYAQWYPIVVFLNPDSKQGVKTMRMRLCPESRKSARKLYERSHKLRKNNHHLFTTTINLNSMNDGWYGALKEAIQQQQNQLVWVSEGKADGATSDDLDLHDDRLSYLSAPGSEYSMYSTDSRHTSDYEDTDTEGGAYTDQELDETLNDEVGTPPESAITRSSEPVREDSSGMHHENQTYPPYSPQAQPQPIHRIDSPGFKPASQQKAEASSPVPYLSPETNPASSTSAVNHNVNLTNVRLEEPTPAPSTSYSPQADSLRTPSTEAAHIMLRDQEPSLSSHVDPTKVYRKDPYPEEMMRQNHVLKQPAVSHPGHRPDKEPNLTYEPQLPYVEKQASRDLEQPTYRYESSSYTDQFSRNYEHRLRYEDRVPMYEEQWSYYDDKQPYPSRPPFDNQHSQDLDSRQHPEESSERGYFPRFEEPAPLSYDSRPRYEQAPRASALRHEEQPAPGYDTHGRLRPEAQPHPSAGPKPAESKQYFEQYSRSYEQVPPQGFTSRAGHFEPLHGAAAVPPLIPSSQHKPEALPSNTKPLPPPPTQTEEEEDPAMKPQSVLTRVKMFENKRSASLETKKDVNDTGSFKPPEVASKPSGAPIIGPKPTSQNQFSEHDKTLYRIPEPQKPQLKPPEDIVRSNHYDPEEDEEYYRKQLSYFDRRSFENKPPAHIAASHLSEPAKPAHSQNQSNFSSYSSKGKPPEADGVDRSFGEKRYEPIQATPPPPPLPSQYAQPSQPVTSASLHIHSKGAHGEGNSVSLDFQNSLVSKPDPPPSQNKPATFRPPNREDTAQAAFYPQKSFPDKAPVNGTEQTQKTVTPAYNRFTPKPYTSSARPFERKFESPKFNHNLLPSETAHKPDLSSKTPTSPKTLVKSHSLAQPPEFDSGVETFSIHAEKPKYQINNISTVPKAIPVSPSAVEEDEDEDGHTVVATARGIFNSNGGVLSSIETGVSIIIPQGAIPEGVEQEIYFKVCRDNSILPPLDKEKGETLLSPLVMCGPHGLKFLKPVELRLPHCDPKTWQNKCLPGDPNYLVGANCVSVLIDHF

Results are given in words; binding and its absence hold for the method and conditions named. In cells and extracts the contact can be indirect. Some binding calls cover weakened binding; strength is not graded here.

In the experiment the target is MARVEL domain containing 2 (MARVELD2), wild type, FLAG-tagged (human) (UniProt Q8N4S9). The experiment can be described thus: co-IP; lysates of HEK-293 cells 48 h after transfection with FLAG-MARVELD2 wild type or mutant; 100 ug protein; antibodies against ZO-1, FLAG or IgG control at 4 °C overnight, protein A agarose beads; SDS-PAGE and blot stained for ZO-1; lysis buffer with NaCl, 1% Triton X-100, 0.1% SDS, Tris pH 7.5, 1% deoxycholate.

Consider “zonula occludens-1 (ZO-1) (from UniProt Q07157 1-1748)”, for which the binding entry is “binds”.
